Common to all, as to assay: co-IP
The target in experiment [1] is FLAG-ZBTB18 (UniProt Q99592).
Experiment [2] concerns the target ZBTB18 (endogenous) (human (endogenous in BTSC3082, BTSC268, BTSC475)) (UniProt Q99592).
In experiment [3] the target is CTBP2 (C-terminal binding protein 2) (human (endogenous in BTSC lines, SNB19, LN229)) (UniProt P56545).

Amino acid sequences for entries named in this document (tags omitted).
UniProt Q99592: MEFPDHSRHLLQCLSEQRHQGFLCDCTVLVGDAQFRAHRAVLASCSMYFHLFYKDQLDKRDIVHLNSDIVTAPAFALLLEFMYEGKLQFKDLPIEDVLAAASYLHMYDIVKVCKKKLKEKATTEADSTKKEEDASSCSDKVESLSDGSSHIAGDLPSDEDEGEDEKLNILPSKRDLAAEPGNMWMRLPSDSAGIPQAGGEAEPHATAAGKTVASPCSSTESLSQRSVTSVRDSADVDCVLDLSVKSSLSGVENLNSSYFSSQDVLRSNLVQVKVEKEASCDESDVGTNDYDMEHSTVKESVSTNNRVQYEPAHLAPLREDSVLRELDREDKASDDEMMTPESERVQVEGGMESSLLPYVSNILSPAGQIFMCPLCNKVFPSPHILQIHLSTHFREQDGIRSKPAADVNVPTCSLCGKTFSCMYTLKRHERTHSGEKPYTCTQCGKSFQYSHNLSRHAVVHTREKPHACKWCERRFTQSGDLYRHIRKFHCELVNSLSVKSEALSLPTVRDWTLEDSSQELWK
UniProt O75362: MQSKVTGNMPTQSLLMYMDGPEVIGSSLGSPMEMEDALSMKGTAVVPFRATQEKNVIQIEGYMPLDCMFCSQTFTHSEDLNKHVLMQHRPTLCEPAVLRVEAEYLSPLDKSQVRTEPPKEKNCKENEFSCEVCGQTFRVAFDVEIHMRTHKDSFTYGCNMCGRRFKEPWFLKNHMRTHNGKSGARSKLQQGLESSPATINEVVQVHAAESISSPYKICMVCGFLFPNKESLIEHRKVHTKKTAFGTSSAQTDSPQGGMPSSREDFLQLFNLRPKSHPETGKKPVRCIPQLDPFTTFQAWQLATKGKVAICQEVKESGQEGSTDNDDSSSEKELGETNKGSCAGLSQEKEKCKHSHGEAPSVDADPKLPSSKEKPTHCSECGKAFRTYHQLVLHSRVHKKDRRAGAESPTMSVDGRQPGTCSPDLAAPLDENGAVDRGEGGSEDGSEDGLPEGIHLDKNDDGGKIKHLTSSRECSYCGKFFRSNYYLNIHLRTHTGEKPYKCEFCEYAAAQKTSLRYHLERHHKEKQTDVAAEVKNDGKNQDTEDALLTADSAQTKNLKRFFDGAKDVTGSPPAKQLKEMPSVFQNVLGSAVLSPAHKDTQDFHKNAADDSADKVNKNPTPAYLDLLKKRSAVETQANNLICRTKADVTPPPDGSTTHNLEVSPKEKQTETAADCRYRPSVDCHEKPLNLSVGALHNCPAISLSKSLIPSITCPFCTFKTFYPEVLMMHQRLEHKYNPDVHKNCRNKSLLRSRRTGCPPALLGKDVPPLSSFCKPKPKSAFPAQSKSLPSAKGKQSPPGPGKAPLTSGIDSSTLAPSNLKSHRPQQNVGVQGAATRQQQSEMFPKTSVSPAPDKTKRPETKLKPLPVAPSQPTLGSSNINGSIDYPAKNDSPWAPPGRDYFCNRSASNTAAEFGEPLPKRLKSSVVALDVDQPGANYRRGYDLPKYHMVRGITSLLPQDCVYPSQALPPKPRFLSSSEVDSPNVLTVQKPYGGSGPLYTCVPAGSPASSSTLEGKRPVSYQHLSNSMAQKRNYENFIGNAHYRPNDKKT

Results are given in words; binding and its absence hold for the method and conditions named. In cells and extracts the contact can be indirect. Some results given as binding are weak or reduced against the parent protein; the word gives no strength.

As for “CTBP2 (C-terminal binding protein 2) (from UniProt P56545 1-445)”, the binding result in experiment [1] and in experiment [2] was “binds” each time.

For ZNF217 (from UniProt O75362 1-1048), in experiment [3], the binding result is reported as “binds”.

With “ZBTB18 (endogenous) (from UniProt Q99592 1-522)”, the binding entry in experiment [3] was “binds weakly”.
